Data reported in article PMC10957665, “The C-terminal selenenylsulfide of extracellular/non-reduced thioredoxin reductase endows this protein with selectivity to small-molecule electrophilic reagents under oxidative conditions” (Frontiers in Molecular Biosciences, 2024).

What was measured:
Test in all cases: cross-linking; diamide-induced covalent (disulfide/selenenylsulfide) complex: TrxR1 or a TrxR1 mutant with a 2-fold concentration of hTrx1, or one protein alone, 10 mM diamide, 30 min at room temperature; non-reducing SDS-PAGE, Coomassie stain; both purified
[1] = molecular target: double Cys189Ser/Sec498Cys mutant of TrxR1 (UniProt O89049)
[2] = molecular target: double Cys296Ser/Sec498Cys mutant of TrxR1 (UniProt O89049)
[3] = molecular target: double Cys458Ser/Sec498Cys mutant of TrxR1 (UniProt O89049)
[4] = molecular target: double Cys497Ser/Sec498Ser mutant of TrxR1 (UniProt O89049)
[5] = molecular target: single Sec498Cys mutant of TrxR1
[6] = molecular target: single Sec498Ser mutant of TrxR1

B1: human cytosolic thioredoxin (hTrx1) (natural protein, UniProt P10599 1-105, looked up)
chain: MVKQIESKTAFQEALDAAGDKLVVVDFSATWCGPCKMIKPFFHSLSEKYSNVIFLEVDVDDCQDVASECEVKCMPTFQFFKKGQKVGEFSGANKEKLEATINELV
notes: Human cytosolic thioredoxin (hTrx1); freshly DTT-treated, free thiol on surface Cys73; also called human cytosolic Trx; source: purified according to a previously described method (Zhai and Zhong, 2010); incubated with DTT and dialysed before use
binding [1]: binds
binding [2]: binds
binding [3]: binds
binding [4]: no binding
binding [5]: binds
binding [6]: binds

No constants are given. Whether binding was seen depends on the method and setting. For part of these data: Binding can be weak; no strength is given.
